Measured values from article PMC7886514.

Molecular target: T1, I-κB kinase-ε (mouse (endogenous in heart tissue)) (UniProt Q9R0T8)
T1 sequence: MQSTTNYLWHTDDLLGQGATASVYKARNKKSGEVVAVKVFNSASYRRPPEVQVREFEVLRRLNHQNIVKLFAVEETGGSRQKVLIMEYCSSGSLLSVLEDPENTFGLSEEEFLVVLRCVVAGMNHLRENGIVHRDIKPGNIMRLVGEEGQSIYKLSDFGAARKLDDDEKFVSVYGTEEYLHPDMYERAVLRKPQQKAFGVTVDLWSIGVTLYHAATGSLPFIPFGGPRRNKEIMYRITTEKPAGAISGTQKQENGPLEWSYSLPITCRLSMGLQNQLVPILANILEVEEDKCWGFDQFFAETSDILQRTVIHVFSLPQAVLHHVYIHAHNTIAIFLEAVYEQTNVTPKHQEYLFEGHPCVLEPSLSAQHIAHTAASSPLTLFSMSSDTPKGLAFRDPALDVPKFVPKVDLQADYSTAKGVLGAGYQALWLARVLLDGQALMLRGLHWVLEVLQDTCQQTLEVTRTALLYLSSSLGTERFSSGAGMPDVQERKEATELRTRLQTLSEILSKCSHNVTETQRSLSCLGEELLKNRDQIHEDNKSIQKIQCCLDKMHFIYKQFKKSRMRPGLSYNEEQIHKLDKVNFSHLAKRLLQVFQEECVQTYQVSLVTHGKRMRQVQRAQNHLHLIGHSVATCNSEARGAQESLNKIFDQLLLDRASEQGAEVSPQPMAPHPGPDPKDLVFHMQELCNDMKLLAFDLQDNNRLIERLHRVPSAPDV
Assay: co-IP; heart tissue proteins of WT mice stimulated with saline or Ang II for 8 weeks; precleared with Protein G magnetic beads; precipitated with 3 μg anti-IKKε antibody overnight; immunoblot with anti-IKKε, anti-MEK1/2, anti-ERK1/2 and anti-p38 antibodies

- binding: binds
Substance: extracellular signal-regulated kinase (mouse (endogenous in heart tissue))

Results are given in words; binding and its absence hold for the method and conditions named. In cells and extracts the contact can be indirect. Binding calls can cover weak binding; strength is not graded here.
